Laboratory results: PubChem BioAssay AID1508597 (Cure First, 2020)

- Assay: 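Knock-downs altering ovarian cancer cell survival with or without PARP inhibitor rucaparib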 (primary screen)
- System: human ovarian carcinoma lines grown from tumours: OCI-P5x (papillary serous) and OCI-C5x (clear cell)
- Reagent: siRNA pool against human genes, 1.25 pmol siRNA per well
- Time to read-out: 72 h or 96 h, depending on the cell culture
- Treatment: rucaparib 20 µM (about IC30) or vehicle, present until read-out
- Measurement: 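ATP luminescence measured at 72 or 96 h according to the culture, then normalised and expressed as percent viability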
- Scale: viability, normalised: higher = more viable cells remaining
- Active means: 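a well counts as a hit if its normalised viability is under 80 percent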
- Meaning of the calls: active = viability under 80%; inactive = viability 80% or more
The whole screen tested about 2,100 reagents; shown is a part drawn at random. 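Calls flag viability under 80% in either arm, not effects specific to rucaparib; the reference for percent is not stated.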 Unmarked entries are inactive. The record does not give: the 100% reference.

| target gene | PubChem SID | rucaparib or vehicle | cell line | technical replicate | viability, normalised (%) |
| --- | --- | --- | --- | --- | --- |
| GADD45G (growth arrest and DNA damage inducible gamma) | SID405528317 | Rucaparib | OCI-C5x (clear cell) | 1 | 47.9 (active) |
| GADD45G (growth arrest and DNA damage inducible gamma) | SID405528317 | Rucaparib | OCI-C5x (clear cell) | 2 | 47.3 (active) |
| GADD45G (growth arrest and DNA damage inducible gamma) | SID405528317 | Rucaparib | OCI-C5x (clear cell) | 3 | 40.8 (active) |
| GADD45G (growth arrest and DNA damage inducible gamma) | SID405528317 | Rucaparib | OCI-P5x (serous) | 1 | 79.9 (active) |
| GADD45G (growth arrest and DNA damage inducible gamma) | SID405528317 | Rucaparib | OCI-P5x (serous) | 2 | 86.2 |
| GADD45G (growth arrest and DNA damage inducible gamma) | SID405528317 | Rucaparib | OCI-P5x (serous) | 3 | 74.3 (active) |
| GADD45G (growth arrest and DNA damage inducible gamma) | SID405528317 | Vehicle | OCI-C5x (clear cell) | 1 | 70.8 (active) |
| GADD45G (growth arrest and DNA damage inducible gamma) | SID405528317 | Vehicle | OCI-C5x (clear cell) | 2 | 51.3 (active) |
| GADD45G (growth arrest and DNA damage inducible gamma) | SID405528317 | Vehicle | OCI-C5x (clear cell) | 3 | 47.9 (active) |
| GADD45G (growth arrest and DNA damage inducible gamma) | SID405528317 | Vehicle | OCI-P5x (serous) | 1 | 77.9 (active) |
| GADD45G (growth arrest and DNA damage inducible gamma) | SID405528317 | Vehicle | OCI-P5x (serous) | 2 | 84.4 |
| GADD45G (growth arrest and DNA damage inducible gamma) | SID405528317 | Vehicle | OCI-P5x (serous) | 3 | 79.4 (active) |
| NCOA1 (nuclear receptor coactivator 1) | SID405527062 | Rucaparib | OCI-C5x (clear cell) | 1 | 42.7 (active) |
| NCOA1 (nuclear receptor coactivator 1) | SID405527062 | Rucaparib | OCI-C5x (clear cell) | 2 | 43.9 (active) |
| NCOA1 (nuclear receptor coactivator 1) | SID405527062 | Rucaparib | OCI-C5x (clear cell) | 3 | 45.7 (active) |
| NCOA1 (nuclear receptor coactivator 1) | SID405527062 | Rucaparib | OCI-P5x (serous) | 1 | 42.9 (active) |
| NCOA1 (nuclear receptor coactivator 1) | SID405527062 | Rucaparib | OCI-P5x (serous) | 2 | 28.2 (active) |
| NCOA1 (nuclear receptor coactivator 1) | SID405527062 | Rucaparib | OCI-P5x (serous) | 3 | 33.6 (active) |
| NCOA1 (nuclear receptor coactivator 1) | SID405527062 | Vehicle | OCI-C5x (clear cell) | 1 | 38.8 (active) |
| NCOA1 (nuclear receptor coactivator 1) | SID405527062 | Vehicle | OCI-C5x (clear cell) | 2 | 40.4 (active) |
| NCOA1 (nuclear receptor coactivator 1) | SID405527062 | Vehicle | OCI-C5x (clear cell) | 3 | 45.2 (active) |
| NCOA1 (nuclear receptor coactivator 1) | SID405527062 | Vehicle | OCI-P5x (serous) | 1 | 42 (active) |
| NCOA1 (nuclear receptor coactivator 1) | SID405527062 | Vehicle | OCI-P5x (serous) | 2 | 40.7 (active) |
| NCOA1 (nuclear receptor coactivator 1) | SID405527062 | Vehicle | OCI-P5x (serous) | 3 | 43.9 (active) |
| PDE8A (phosphodiesterase 8A) | SID405526702 | Rucaparib | OCI-C5x (clear cell) | 1 | 63.7 (active) |
| PDE8A (phosphodiesterase 8A) | SID405526702 | Rucaparib | OCI-C5x (clear cell) | 2 | 56.9 (active) |
| PDE8A (phosphodiesterase 8A) | SID405526702 | Rucaparib | OCI-C5x (clear cell) | 3 | 62.1 (active) |
| PDE8A (phosphodiesterase 8A) | SID405526702 | Rucaparib | OCI-P5x (serous) | 1 | 51.8 (active) |
| PDE8A (phosphodiesterase 8A) | SID405526702 | Rucaparib | OCI-P5x (serous) | 2 | 54.7 (active) |
| PDE8A (phosphodiesterase 8A) | SID405526702 | Rucaparib | OCI-P5x (serous) | 3 | 56 (active) |
| PDE8A (phosphodiesterase 8A) | SID405526702 | Vehicle | OCI-C5x (clear cell) | 1 | 51.3 (active) |
| PDE8A (phosphodiesterase 8A) | SID405526702 | Vehicle | OCI-C5x (clear cell) | 2 | 77.8 (active) |
| PDE8A (phosphodiesterase 8A) | SID405526702 | Vehicle | OCI-C5x (clear cell) | 3 | 71.9 (active) |
| PDE8A (phosphodiesterase 8A) | SID405526702 | Vehicle | OCI-P5x (serous) | 1 | 88.4 |
| PDE8A (phosphodiesterase 8A) | SID405526702 | Vehicle | OCI-P5x (serous) | 2 | 97.5 |
| PDE8A (phosphodiesterase 8A) | SID405526702 | Vehicle | OCI-P5x (serous) | 3 | 117 |
| PES1 (pescadillo ribosomal biogenesis factor 1) | SID405526452 | Rucaparib | OCI-C5x (clear cell) | 1 | 56.1 (active) |
| PES1 (pescadillo ribosomal biogenesis factor 1) | SID405526452 | Rucaparib | OCI-C5x (clear cell) | 2 | 51.9 (active) |
| PES1 (pescadillo ribosomal biogenesis factor 1) | SID405526452 | Rucaparib | OCI-C5x (clear cell) | 3 | 51 (active) |
| PES1 (pescadillo ribosomal biogenesis factor 1) | SID405526452 | Rucaparib | OCI-P5x (serous) | 1 | 63.2 (active) |
| PES1 (pescadillo ribosomal biogenesis factor 1) | SID405526452 | Rucaparib | OCI-P5x (serous) | 2 | 59.9 (active) |
| PES1 (pescadillo ribosomal biogenesis factor 1) | SID405526452 | Rucaparib | OCI-P5x (serous) | 3 | 85.6 |
| PES1 (pescadillo ribosomal biogenesis factor 1) | SID405526452 | Vehicle | OCI-C5x (clear cell) | 1 | 55.9 (active) |
| PES1 (pescadillo ribosomal biogenesis factor 1) | SID405526452 | Vehicle | OCI-C5x (clear cell) | 2 | 44.4 (active) |
| PES1 (pescadillo ribosomal biogenesis factor 1) | SID405526452 | Vehicle | OCI-C5x (clear cell) | 3 | 42.2 (active) |
| PES1 (pescadillo ribosomal biogenesis factor 1) | SID405526452 | Vehicle | OCI-P5x (serous) | 1 | 74.3 (active) |
| PES1 (pescadillo ribosomal biogenesis factor 1) | SID405526452 | Vehicle | OCI-P5x (serous) | 2 | 71.3 (active) |
| PES1 (pescadillo ribosomal biogenesis factor 1) | SID405526452 | Vehicle | OCI-P5x (serous) | 3 | 78.1 (active) |
| ACTG1 (actin gamma 1) | SID405527945 | Rucaparib | OCI-C5x (clear cell) | 1 | 65.8 (active) |
| ACTG1 (actin gamma 1) | SID405527945 | Rucaparib | OCI-C5x (clear cell) | 2 | 54.1 (active) |
| ACTG1 (actin gamma 1) | SID405527945 | Rucaparib | OCI-C5x (clear cell) | 3 | 68.7 (active) |
| ACTG1 (actin gamma 1) | SID405527945 | Rucaparib | OCI-P5x (serous) | 1 | 69.5 (active) |
| ACTG1 (actin gamma 1) | SID405527945 | Rucaparib | OCI-P5x (serous) | 2 | 69.3 (active) |
| ACTG1 (actin gamma 1) | SID405527945 | Rucaparib | OCI-P5x (serous) | 3 | 64.6 (active) |
| ACTG1 (actin gamma 1) | SID405527945 | Vehicle | OCI-C5x (clear cell) | 1 | 67.4 (active) |
| ACTG1 (actin gamma 1) | SID405527945 | Vehicle | OCI-C5x (clear cell) | 2 | 59.8 (active) |
| ACTG1 (actin gamma 1) | SID405527945 | Vehicle | OCI-C5x (clear cell) | 3 | 58.8 (active) |
| ACTG1 (actin gamma 1) | SID405527945 | Vehicle | OCI-P5x (serous) | 1 | 69.9 (active) |
| ACTG1 (actin gamma 1) | SID405527945 | Vehicle | OCI-P5x (serous) | 2 | 73.5 (active) |
| ACTG1 (actin gamma 1) | SID405527945 | Vehicle | OCI-P5x (serous) | 3 | 63.5 (active) |

6 successive records from above:
| target gene | PubChem SID | rucaparib or vehicle | cell line | technical replicate | viability, normalised (%) |
| --- | --- | --- | --- | --- | --- |
| NCOA1 (nuclear receptor coactivator 1) | SID405527062 | Rucaparib | OCI-P5x (serous) | 2 | 28.2 (active) |
| NCOA1 (nuclear receptor coactivator 1) | SID405527062 | Rucaparib | OCI-P5x (serous) | 3 | 33.6 (active) |
| NCOA1 (nuclear receptor coactivator 1) | SID405527062 | Vehicle | OCI-C5x (clear cell) | 1 | 38.8 (active) |
| NCOA1 (nuclear receptor coactivator 1) | SID405527062 | Vehicle | OCI-C5x (clear cell) | 2 | 40.4 (active) |
| NCOA1 (nuclear receptor coactivator 1) | SID405527062 | Vehicle | OCI-C5x (clear cell) | 3 | 45.2 (active) |
| NCOA1 (nuclear receptor coactivator 1) | SID405527062 | Vehicle | OCI-P5x (serous) | 1 | 42 (active) |
